Drawing on patent US20090098142A1, this text covers binding for 1 substance.

By UniProt entry, the sequences of proteins in these tests, tags left out. Where a name states a change or a piece, a line headed by the entry shows the natural chain unless it says otherwise.
UniProt Q5I6E4: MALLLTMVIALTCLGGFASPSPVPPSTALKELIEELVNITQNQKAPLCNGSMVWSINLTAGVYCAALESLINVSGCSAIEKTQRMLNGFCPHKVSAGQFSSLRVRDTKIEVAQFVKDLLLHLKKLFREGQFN

In this assay the target is T1, sIL-13Rα2-Fc (soluble human IL-13 receptor alpha2 with a human IgG1 Fc tail) (human) (UniProt Q14627).
T1 sequence (looked up): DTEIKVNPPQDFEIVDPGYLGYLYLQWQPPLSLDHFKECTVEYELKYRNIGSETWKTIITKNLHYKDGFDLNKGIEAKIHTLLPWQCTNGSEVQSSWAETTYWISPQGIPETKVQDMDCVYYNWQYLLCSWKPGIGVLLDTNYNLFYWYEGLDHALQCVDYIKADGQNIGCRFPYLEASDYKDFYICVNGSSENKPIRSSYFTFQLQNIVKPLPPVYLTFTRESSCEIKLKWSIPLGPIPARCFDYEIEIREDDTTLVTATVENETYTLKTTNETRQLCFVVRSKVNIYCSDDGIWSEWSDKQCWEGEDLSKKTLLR
Description: SPR (BIACORE), sIL-13Rα2-Fc amine-coupled to a CM5 chip.

Results are given in words; binding and its absence hold for the method and conditions named. Some binding calls cover weakened binding; strength is not graded here. Tags and fused reporters may be left off the sequences shown.

Turning to “cynomolgus monkey IL-13 (NHP IL-13) (from UniProt Q5I6E4 21-132) (ligand)”, the binding result was “binds”.
